For one substance, binding results are on record in paper PMC12532918.

Chains of the proteins cited; added tags and fusions are not shown.
UniProt P61073: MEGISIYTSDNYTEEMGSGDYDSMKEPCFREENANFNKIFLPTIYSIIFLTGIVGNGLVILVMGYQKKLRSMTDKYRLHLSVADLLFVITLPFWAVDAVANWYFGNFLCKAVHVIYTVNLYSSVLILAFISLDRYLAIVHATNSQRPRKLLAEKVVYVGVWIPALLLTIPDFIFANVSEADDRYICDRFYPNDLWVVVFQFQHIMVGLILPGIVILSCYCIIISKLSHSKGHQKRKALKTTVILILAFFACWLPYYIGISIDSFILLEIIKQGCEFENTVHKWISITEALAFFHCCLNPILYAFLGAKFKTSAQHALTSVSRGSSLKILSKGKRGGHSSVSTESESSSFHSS
UniProt P41595: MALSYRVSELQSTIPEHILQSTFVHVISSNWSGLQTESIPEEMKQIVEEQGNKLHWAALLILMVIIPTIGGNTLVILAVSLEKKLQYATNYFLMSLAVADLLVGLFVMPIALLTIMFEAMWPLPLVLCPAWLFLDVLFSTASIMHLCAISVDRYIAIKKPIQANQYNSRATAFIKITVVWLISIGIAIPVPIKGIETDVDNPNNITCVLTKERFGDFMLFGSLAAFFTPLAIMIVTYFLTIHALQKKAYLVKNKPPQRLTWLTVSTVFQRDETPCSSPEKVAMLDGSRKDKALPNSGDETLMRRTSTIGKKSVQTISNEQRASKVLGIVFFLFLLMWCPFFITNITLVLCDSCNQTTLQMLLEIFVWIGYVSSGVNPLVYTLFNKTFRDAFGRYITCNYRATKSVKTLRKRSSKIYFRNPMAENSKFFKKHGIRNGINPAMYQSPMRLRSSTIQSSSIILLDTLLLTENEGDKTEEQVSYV

This experiment has as its target CXCR4-CFP / CXCR4-YFP (human) (UniProt P61073). Nature of the experiment: FRET or BRET; FLIM (CFP donor lifetime) in live HEK-293T cells transfected with CXCR4-YFP/CXCR4-CFP or 5HTR2B-YFP/CXCR4-CFP (15 µg : 9 µg); CXCR4-CFP alone as reference; untreated or ChOx (25 U/mL, 2 h, 37 °C); without or with CXCL12 (100 nM, 30 min). In general terms: BRET reads energy transfer from a luciferase to a nearby fluorophore.

No constants are given. Whether binding was seen depends on the method and setting. Binding seen in cells or lysates may run through a third protein.

Regarding “5HTR2B-YFP (from UniProt P41595 1-481) (receptor)”, the binding result is recorded as “no binding”.
